Experimental data from paper PMC5399177.
These are yes or no findings as the source states them, for the method shown. In cells and extracts the contact can be indirect. Some binding calls cover weakened binding; strength is not graded here. Tags and fused reporters may be left off the sequences shown.

Amino acid sequences for entries named in this document (tags omitted).
UniProt P40763: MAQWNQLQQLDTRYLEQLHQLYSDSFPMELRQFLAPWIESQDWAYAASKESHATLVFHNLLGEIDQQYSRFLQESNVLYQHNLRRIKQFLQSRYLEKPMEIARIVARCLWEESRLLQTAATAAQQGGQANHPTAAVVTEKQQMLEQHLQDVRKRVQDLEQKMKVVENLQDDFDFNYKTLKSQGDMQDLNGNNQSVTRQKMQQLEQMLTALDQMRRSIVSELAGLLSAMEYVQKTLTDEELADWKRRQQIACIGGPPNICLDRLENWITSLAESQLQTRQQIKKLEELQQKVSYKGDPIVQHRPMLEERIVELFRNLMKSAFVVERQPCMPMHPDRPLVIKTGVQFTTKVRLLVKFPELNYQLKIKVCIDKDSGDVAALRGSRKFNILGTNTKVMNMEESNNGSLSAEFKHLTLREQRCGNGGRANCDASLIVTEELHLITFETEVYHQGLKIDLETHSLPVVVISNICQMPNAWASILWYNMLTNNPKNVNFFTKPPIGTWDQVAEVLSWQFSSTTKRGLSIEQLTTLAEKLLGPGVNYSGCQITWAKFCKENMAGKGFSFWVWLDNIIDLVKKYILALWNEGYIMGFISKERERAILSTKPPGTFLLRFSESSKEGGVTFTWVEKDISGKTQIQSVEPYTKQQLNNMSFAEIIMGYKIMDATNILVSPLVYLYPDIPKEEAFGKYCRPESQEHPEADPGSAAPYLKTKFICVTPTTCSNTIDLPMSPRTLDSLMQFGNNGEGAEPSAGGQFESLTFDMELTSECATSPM

Target: T1, Flag-DAB2IP (UniProt Q5VWQ8)
T1 sequence: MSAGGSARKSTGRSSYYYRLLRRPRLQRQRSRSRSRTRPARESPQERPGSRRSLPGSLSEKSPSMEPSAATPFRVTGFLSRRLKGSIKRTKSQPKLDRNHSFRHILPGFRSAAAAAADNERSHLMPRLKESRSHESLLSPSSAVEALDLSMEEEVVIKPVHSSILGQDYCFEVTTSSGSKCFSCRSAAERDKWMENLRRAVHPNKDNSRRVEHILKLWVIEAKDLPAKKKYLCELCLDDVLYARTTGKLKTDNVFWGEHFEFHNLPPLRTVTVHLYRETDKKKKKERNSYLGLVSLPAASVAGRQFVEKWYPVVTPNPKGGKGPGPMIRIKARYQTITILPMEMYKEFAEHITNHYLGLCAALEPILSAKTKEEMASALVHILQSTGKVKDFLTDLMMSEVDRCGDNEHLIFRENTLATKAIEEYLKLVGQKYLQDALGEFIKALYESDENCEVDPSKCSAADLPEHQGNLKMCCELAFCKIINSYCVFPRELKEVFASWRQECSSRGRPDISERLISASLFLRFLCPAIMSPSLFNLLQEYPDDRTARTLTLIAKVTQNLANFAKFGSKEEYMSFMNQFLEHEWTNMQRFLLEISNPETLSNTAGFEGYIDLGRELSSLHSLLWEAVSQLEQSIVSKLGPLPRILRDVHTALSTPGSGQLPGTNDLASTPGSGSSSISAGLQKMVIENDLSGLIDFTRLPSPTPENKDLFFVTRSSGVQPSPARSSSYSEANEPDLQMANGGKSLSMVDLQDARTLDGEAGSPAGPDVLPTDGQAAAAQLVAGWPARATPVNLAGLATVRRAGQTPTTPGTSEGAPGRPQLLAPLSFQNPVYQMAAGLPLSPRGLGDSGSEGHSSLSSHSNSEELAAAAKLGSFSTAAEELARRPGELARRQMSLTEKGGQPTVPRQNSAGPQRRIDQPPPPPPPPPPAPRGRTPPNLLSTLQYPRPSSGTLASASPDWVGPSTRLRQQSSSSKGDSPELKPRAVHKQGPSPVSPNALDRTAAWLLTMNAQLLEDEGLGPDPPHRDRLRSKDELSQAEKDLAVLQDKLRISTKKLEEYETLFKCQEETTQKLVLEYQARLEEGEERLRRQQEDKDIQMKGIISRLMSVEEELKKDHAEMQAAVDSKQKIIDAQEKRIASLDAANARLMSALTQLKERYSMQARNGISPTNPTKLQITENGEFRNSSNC
Assay: co-IP; HEK 293 cells transfected with Flag-tagged DAB2IP constructs; lysates precipitated with Flag antibody and probed with t-STAT3 antibody, or precipitated with t-STAT3 antibody and probed with Flag antibody

signal transducer and activator of transcription 3 (from UniProt P40763 1-770)
binding: binds
